{"source": "patent WO2009110655A1", "about": "“Novel beta substituted morita-baylis-hillman derivatives” (FOOD SCIENCE Co Ltd, priority 2008, dated 2009)", "note": "Some of these results come from one statement about several compounds together.", "data": [{"tested_on": "human esophageal cancer cell line HEC4", "assay": "MTT assay, anticancer effect (cytotoxicity) of β-substituted MBH derivatives", "format": "cell-based", "conditions": "2 mg compound in 80 μl DMSO, 1 μl per well, 24 h at 37 °C, undiluted (FIGs. 1 and 2)", "values": [{"smiles": "CCCCCCCCCCCCC/C=C(\\C(=O)OC)C(O)c1ccccc1", "note": "(centres unmarked) [SE-4, (Z)-methyl-2-(hydroxy(phenyl)methyl)hexateca-2-enoate]", "oncolytic activity": "very high oncolytic activities", "viabilities of the cancer cells": "less than 20%"}, {"smiles": "CCCCCCCCCCCCC/C=C(/C(=O)OC)C(O)C(C)=O", "note": "(centres unmarked) [SE-3, secokotomolide A]", "oncolytic activity": "very high oncolytic activities", "viabilities of the cancer cells": "less than 20%"}, {"smiles": "CCCCCCCCCCCCC/C=C(/C(=O)OCC)C(O)c1ccc(F)cc1", "note": "(centres unmarked) [SE-6, (E)-ethyl-2-((4-fluorophenyl)(hydroxy)methyl)hexateca-2-enoate]", "oncolytic activity": "very high oncolytic activities", "viabilities of the cancer cells": "less than 20%"}, {"smiles": "CCCCCCCCCCCCC/C=C(/C(=O)OC)C(O)c1ccccc1", "note": "(centres unmarked) [SE-5, (E)-methyl-2-(hydroxy(phenyl)methyl)hexateca-2-enoate]", "oncolytic activity": "very high oncolytic activities", "viabilities of the cancer cells": "less than 20%"}]}]}
